Measured values: publication PMC5066615
Results are given in words; binding and its absence hold for the method and conditions named. In cells and extracts the contact can be indirect. Some results given as binding are weak or reduced against the parent protein; the word gives no strength. For some assays here: Sequences can lack the tags named with a protein. Values belong to the molecule of their own block, whether it stands above or below them.

Chains of the proteins cited; added tags and fusions are not shown.
UniProt P04150: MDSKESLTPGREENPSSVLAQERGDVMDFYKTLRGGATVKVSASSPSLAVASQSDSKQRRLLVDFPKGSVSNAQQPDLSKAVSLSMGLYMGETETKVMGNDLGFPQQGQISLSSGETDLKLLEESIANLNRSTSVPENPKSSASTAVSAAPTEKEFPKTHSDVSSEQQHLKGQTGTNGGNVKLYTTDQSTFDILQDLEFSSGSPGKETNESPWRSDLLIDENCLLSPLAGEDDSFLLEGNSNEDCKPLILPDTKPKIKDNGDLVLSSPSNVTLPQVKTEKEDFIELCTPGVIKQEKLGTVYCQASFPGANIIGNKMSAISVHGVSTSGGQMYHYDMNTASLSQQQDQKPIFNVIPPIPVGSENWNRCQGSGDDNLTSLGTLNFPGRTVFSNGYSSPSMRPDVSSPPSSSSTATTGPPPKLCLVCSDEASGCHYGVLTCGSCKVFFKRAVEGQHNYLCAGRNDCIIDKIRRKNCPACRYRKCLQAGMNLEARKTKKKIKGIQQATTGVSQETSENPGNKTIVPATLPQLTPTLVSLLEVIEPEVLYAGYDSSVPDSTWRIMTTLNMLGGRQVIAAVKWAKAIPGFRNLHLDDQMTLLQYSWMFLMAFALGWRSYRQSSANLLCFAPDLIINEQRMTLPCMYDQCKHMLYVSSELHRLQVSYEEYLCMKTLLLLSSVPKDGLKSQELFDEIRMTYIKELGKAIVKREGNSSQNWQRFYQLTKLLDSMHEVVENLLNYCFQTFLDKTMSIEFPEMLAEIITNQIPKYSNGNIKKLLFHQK
UniProt P67809: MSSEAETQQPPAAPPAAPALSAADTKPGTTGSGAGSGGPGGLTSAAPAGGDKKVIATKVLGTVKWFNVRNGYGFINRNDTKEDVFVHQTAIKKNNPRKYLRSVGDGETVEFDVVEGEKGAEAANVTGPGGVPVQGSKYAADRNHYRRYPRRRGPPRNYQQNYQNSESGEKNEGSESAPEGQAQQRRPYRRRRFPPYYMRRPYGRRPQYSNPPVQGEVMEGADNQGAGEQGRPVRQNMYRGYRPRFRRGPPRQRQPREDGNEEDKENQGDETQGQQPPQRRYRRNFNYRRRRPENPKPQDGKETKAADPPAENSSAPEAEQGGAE

How the values were obtained:
Flag-HRSP12 wild type = biological target: T1, Flag-HRSP12 wild type (UniProt P52758); assay: co-IP; immunoprecipitation with α-Flag antibody from extracts of cells transiently expressing Flag-HRSP12 wild type or variants; endogenous partners detected by Western blot
T1 sequence: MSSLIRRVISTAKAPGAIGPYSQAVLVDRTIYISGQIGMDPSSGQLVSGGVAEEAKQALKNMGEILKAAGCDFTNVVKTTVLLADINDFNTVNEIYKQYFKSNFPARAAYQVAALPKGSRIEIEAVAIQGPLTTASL

[1] = biological target: glucocorticoid receptor (human (endogenous in HEK293T)) (UniProt P04150); assay: co-IP; immunoprecipitation of endogenous GR with α-GR antibody (control rabbit IgG) from HEK293T extracts; cells treated with Dex for 1 h (also compared without Dex); extracts treated with RNase A; cells also depleted of YBX1, HRSP12, UPF1 or PNRC2 by siRNA; Western blot
[2] = biological target: T2, MYC-UPF1^R wild type, Q92900; assay: co-IP; HEK293T cells cotransfected with MS2-HA-PNRC2 and MYC-UPF1^R wild type or Δ(1–72); immunoprecipitation with α-MYC antibody (control mouse IgG); Western blot; conditions: remark: other sources report otherwise
T2 chain: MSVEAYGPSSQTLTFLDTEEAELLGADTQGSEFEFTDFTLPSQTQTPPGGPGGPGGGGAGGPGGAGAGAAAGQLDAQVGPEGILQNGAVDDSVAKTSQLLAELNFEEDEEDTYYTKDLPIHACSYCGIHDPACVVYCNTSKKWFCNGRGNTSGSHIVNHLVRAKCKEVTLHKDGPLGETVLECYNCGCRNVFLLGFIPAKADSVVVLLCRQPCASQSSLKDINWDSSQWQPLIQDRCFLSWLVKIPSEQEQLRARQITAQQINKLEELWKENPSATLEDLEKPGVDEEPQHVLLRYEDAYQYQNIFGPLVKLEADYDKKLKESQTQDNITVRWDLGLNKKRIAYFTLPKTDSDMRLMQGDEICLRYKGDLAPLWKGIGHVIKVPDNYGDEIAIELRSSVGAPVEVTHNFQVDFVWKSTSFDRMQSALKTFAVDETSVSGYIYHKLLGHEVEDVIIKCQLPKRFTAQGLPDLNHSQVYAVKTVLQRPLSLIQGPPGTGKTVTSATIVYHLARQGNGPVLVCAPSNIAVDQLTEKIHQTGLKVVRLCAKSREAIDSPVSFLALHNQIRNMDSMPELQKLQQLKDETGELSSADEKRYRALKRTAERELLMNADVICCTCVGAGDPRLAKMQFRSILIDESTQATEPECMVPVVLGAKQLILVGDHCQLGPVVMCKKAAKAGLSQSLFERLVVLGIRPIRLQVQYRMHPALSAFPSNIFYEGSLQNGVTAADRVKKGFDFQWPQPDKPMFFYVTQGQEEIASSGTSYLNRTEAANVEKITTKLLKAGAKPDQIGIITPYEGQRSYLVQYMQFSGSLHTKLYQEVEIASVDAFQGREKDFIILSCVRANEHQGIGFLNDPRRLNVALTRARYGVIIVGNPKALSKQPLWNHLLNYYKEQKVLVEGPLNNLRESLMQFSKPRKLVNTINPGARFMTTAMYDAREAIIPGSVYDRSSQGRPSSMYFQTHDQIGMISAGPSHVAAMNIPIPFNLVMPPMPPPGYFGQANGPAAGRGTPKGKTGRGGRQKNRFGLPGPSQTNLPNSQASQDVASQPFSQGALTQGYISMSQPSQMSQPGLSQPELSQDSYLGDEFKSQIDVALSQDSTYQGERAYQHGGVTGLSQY

binding (Flag-HRSP12 wild type): binds
Molecule: Y-box-binding protein 1 (from UniProt P67809 1-324)

binding [1]: binds
Molecule: proline-rich nuclear receptor coregulatory protein 2 (from UniProt Q9NPJ4 1-139)

binding [2]: binds
B1: MS2-HA-PNRC2, Q9NPJ4 1-139 (protein)
chain: MGGGERYNIPAPQSRNVSKNQQQLNRQKTKEQNSQMKIVHKKKERGHGYNSSAAAWQAMQNGGKNKNFPNNQSWNSSLSGPRLLFKSQANQNYAGAKFSEPPSPSVLPKPPSHWVPVSFNPSDKEIMTFQLKTLLKVQV

binding [1]: binds | binding (Flag-HRSP12 wild type): binds
B2: upstream frameshift 1 (protein, UniProt Q92900 1-1129)
chain: MSVEAYGPSSQTLTFLDTEEAELLGADTQGSEFEFTDFTLPSQTQTPPGGPGGPGGGGAGGPGGAGAGAAAGQLDAQVGPEGILQNGAVDDSVAKTSQLLAELNFEEDEEDTYYTKDLPIHACSYCGIHDPACVVYCNTSKKWFCNGRGNTSGSHIVNHLVRAKCKEVTLHKDGPLGETVLECYNCGCRNVFLLGFIPAKADSVVVLLCRQPCASQSSLKDINWDSSQWQPLIQDRCFLSWLVKIPSEQEQLRARQITAQQINKLEELWKENPSATLEDLEKPGVDEEPQHVLLRYEDAYQYQNIFGPLVKLEADYDKKLKESQTQDNITVRWDLGLNKKRIAYFTLPKTDSGNEDLVIIWLRDMRLMQGDEICLRYKGDLAPLWKGIGHVIKVPDNYGDEIAIELRSSVGAPVEVTHNFQVDFVWKSTSFDRMQSALKTFAVDETSVSGYIYHKLLGHEVEDVIIKCQLPKRFTAQGLPDLNHSQVYAVKTVLQRPLSLIQGPPGTGKTVTSATIVYHLARQGNGPVLVCAPSNIAVDQLTEKIHQTGLKVVRLCAKSREAIDSPVSFLALHNQIRNMDSMPELQKLQQLKDETGELSSADEKRYRALKRTAERELLMNADVICCTCVGAGDPRLAKMQFRSILIDESTQATEPECMVPVVLGAKQLILVGDHCQLGPVVMCKKAAKAGLSQSLFERLVVLGIRPIRLQVQYRMHPALSAFPSNIFYEGSLQNGVTAADRVKKGFDFQWPQPDKPMFFYVTQGQEEIASSGTSYLNRTEAANVEKITTKLLKAGAKPDQIGIITPYEGQRSYLVQYMQFSGSLHTKLYQEVEIASVDAFQGREKDFIILSCVRANEHQGIGFLNDPRRLNVALTRARYGVIIVGNPKALSKQPLWNHLLNYYKEQKVLVEGPLNNLRESLMQFSKPRKLVNTINPGARFMTTAMYDAREAIIPGSVYDRSSQGRPSSMYFQTHDQIGMISAGPSHVAAMNIPIPFNLVMPPMPPPGYFGQANGPAAGRGTPKGKTGRGGRQKNRFGLPGPSQTNLPNSQASQDVASQPFSQGALTQGYISMSQPSQMSQPGLSQPELSQDSYLGDEFKSQIDVALSQDSTYQGERAYQHGGVTGLSQY
